Source: patent US11225470B2, “Tetrazolinone compounds and its use as pest control agents” (SUMITOMO CHEMICAL COMPANY, LIMITED, priority 2016, dated 2022)
Some entries share one result that the patent states for a list of compounds.

How the values were obtained:
Type in all cases: in vivo
[1] = system: soybean rust fungi (Phakopsora pachyrhizi); assay: soybean rust test, spraying after inoculation; details: 200 ppm foliar spray 3 days after inoculation; soybean cv Kurosengoku; observed 8 days after spraying
[2] = system: soybean rust fungi (Phakopsora pachyrhizi); assay: soybean rust test, spraying before inoculation; details: 200 ppm foliar spray, inoculation after 4 days; soybean cv Kurosengoku
[3] = system: wheat leaf blotch fungi (Septoria tritici); assay: wheat leaf blotch test, spraying before inoculation; details: inoculation after 4 days
[4] = system: wheat brown rust fungi (Puccinia recondita); assay: wheat brown rust test; details: inoculation after 5 days, wheat cv SHIROGANE
[5] = system: barley net blotch fungi (Pyrenophora teres); assay: barley net blotch test; details: 200 ppm foliar spray, inoculation after 2 days; barley cv MIKAMO GOLDEN
[6] = system: kidney bean sclerotinia rot fungi (Sclerotinia sclerotiorum); assay: kidney bean sclerotinia rot test; details: kidney bean cv NAGAUZURA SAITO, observed after four days
[7] = system: wheat leaf blotch fungi (Septoria tritici); assay: wheat leaf blotch test, spraying after inoculation; details: 200 ppm foliar spray 3 days after inoculation; wheat cv APOGEE
[8] = system: soybean frogeye leaf spot disease fungi (Cercospora sojina); assay: soybean frogeye leaf spot test, spraying before inoculation; details: 200 ppm foliar spray, inoculation after 2 days; soybean cv TACHINAGAHA
[9] = system: soybean powdery mildew fungi (Erysiphe diffusa); assay: soybean powdery mildew test, spraying after inoculation; details: 200 ppm foliar spray 2 days after inoculation; soybean cv KUROSENGOKU
[10] = system: barley scald fungi (Rhynchosporium secalis); assay: barley scald test; details: inoculation after 2 days, barley cv NISHINOHOSHI
[11] = system: cucumber downy mildew fungi (Pseudoperonospora cubensis); assay: cucumber downy mildew test; details: inoculation after 1 day, cucumber cv SAGAMIHANJIRO
[12] = 200 ppm foliar spray, wheat cv APOGEE
[13] = 500 ppm foliar spray, wheat cv Apogee

CCC(=NN=C(C)C(C)=NOCSC)OCc1c(C)cccc1-n1nnn(C)c1=O [C-15]
≤ 30%: lesion area compared to the lesion area in an untreated soybean [1] | lesion area compared to the lesion area in an untreated soybean [2] | lesion area compared to the lesion area in an untreated wheat [3, 12] | lesion area compared to the lesion area in an untreated wheat ([4]; 200 ppm foliar spray) | lesion area compared to the lesion area in an untreated barley [5] | lesion area compared to the lesion area in an untreated kidney bean ([6]; 200 ppm foliar spray) | lesion area compared to the lesion area in an untreated wheat [7] | lesion area compared to the lesion area in an untreated soybean [8] | lesion area compared to the lesion area in an untreated soybean [9]

CCC(=NN=C(C)c1c(C)nn(C)c1Cl)OCc1c(C)cccc1-n1nnn(C)c1=O [D-1]
≤ 30%: lesion area compared to the lesion area in an untreated soybean [1] | lesion area compared to the lesion area in an untreated soybean [2] | lesion area compared to the lesion area in an untreated wheat [3, 12] | lesion area compared to the lesion area in an untreated wheat [3, 13] | lesion area compared to the lesion area in an untreated wheat ([4]; 200 ppm foliar spray) | lesion area compared to the lesion area in an untreated wheat ([4]; 500 ppm foliar spray) | lesion area compared to the lesion area in an untreated barley [5] | lesion area compared to the lesion area in an untreated kidney bean ([6]; 200 ppm foliar spray) | lesion area compared to the lesion area in an untreated kidney bean ([6]; 500 ppm foliar spray) | lesion area compared to the lesion area in an untreated barley ([10]; 200 ppm foliar spray) | lesion area compared to the lesion area in an untreated barley ([10]; 500 ppm foliar spray) | lesion area compared to the lesion area in an untreated cucumber ([11]; 50 ppm foliar spray) | lesion area compared to the lesion area in an untreated wheat [7]

CCC(=NN=C(C)c1ccc2c(c1)CCC2)OCc1c(C)cccc1-n1nnn(C)c1=O [D-11]
≤ 30%: lesion area compared to the lesion area in an untreated soybean [1] | lesion area compared to the lesion area in an untreated soybean [2] | lesion area compared to the lesion area in an untreated wheat [3, 12] | lesion area compared to the lesion area in an untreated wheat ([4]; 200 ppm foliar spray) | lesion area compared to the lesion area in an untreated barley [5] | lesion area compared to the lesion area in an untreated kidney bean ([6]; 200 ppm foliar spray) | lesion area compared to the lesion area in an untreated wheat [7] | lesion area compared to the lesion area in an untreated soybean [8] | lesion area compared to the lesion area in an untreated soybean [9]

CCC(=NN=C(C)c1cccc2c1CCCC2)OCc1c(C)cccc1-n1nnn(C)c1=O [D-12]
≤ 30%: lesion area compared to the lesion area in an untreated soybean [1] | lesion area compared to the lesion area in an untreated soybean [2] | lesion area compared to the lesion area in an untreated wheat [3, 12] | lesion area compared to the lesion area in an untreated wheat ([4]; 200 ppm foliar spray) | lesion area compared to the lesion area in an untreated barley [5] | lesion area compared to the lesion area in an untreated kidney bean ([6]; 200 ppm foliar spray) | lesion area compared to the lesion area in an untreated wheat [7] | lesion area compared to the lesion area in an untreated soybean [8] | lesion area compared to the lesion area in an untreated soybean [9]

CCC(=NN=C(C)c1cc(C)n(C)n1)OCc1c(C)cccc1-n1nnn(C)c1=O [D-18]
≤ 30%: lesion area compared to the lesion area in an untreated soybean [1] | lesion area compared to the lesion area in an untreated soybean [2] | lesion area compared to the lesion area in an untreated wheat [3, 12] | lesion area compared to the lesion area in an untreated wheat [3, 13] | lesion area compared to the lesion area in an untreated wheat ([4]; 200 ppm foliar spray) | lesion area compared to the lesion area in an untreated barley [5] | lesion area compared to the lesion area in an untreated kidney bean ([6]; 200 ppm foliar spray) | lesion area compared to the lesion area in an untreated kidney bean ([6]; 500 ppm foliar spray) | lesion area compared to the lesion area in an untreated barley ([10]; 500 ppm foliar spray) | lesion area compared to the lesion area in an untreated wheat [7] | lesion area compared to the lesion area in an untreated soybean [8] | lesion area compared to the lesion area in an untreated soybean [9]

CCC(=NN=C(C)c1ccn(CC)n1)OCc1c(C)cccc1-n1nnn(C)c1=O [D-23]
≤ 30%: lesion area compared to the lesion area in an untreated soybean [1] | lesion area compared to the lesion area in an untreated soybean [2] | lesion area compared to the lesion area in an untreated wheat ([4]; 200 ppm foliar spray) | lesion area compared to the lesion area in an untreated barley [5] | lesion area compared to the lesion area in an untreated kidney bean ([6]; 200 ppm foliar spray) | lesion area compared to the lesion area in an untreated cucumber ([11]; 200 ppm foliar spray) | lesion area compared to the lesion area in an untreated soybean [8]
